PubChem BioAssay AID602196 – INSERM | 2012
Assay: 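Knock-downs that protect lung cancer cells from cisplatin or sensitise them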. Cells: human A549 lung cancer cells. Knock-down reagent: siRNA pair against human genes. Time to read-out: 48 h transfection before cisplatin; time from cisplatin to read-out not stated. Challenge: cisplatin at a dose killing half of control-siRNA cells; exact dose and duration not given. Detection: 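Cisplatin cell death as a shift from the 50% death seen with control siRNA; siRNAs toxic or growth-blocking alone scored 0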. Scale: two-siRNA summed score (-2 to +2): higher = both siRNAs protect from cisplatin killing; -2 means both sensitise; mean protection from cisplatin (shift in death) and protection from cisplatin (shift in death), siRNA C and protection from cisplatin (shift in death), siRNA D: higher = protection from cisplatin killing. Active means: 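Each siRNA scores 0 if harmful alone by LDH or WST-1, otherwise +1 if it reduces and -1 if it increases cisplatin killing; a gene is active when both siRNAs agree (sum +2 or -2)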. Meaning of the calls: active = both siRNAs shift cisplatin killing the same way; inactive = no consistent shift, or siRNA harmful alone.
In all, the deposit lists about 23,000 reagents; below is a random part of them. In the full data, 455 (2%) got an active call. 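Active includes both protection and sensitisation; some change values fall well beyond the stated -50 to +50 range.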 Unmarked entries are inactive. The record does not give: the amount of reagent.

target gene	two-siRNA summed score (-2 to +2)	mean protection from cisplatin (shift in death) (%)	protection from cisplatin (shift in death), siRNA C (%)	protection from cisplatin (shift in death), siRNA D (%)
LOC143678	0	12.7	-11.4	36.7
LOC284798	0	-1.8	-9.7	6
OR4D6 (olfactory receptor family 4 subfamily D member 6)	1	13.1	9.2	16.9
LOC285544	1	18.1	2.7	33.4
IL12RB2 (interleukin 12 receptor subunit beta 2)	0	-7.8	-17.5	1.8
REV3L (REV3 like, DNA directed polymerase zeta catalytic subunit)	-1	-9.6	-3.2	-16.1
NMUR1 (neuromedin U receptor 1)	0	-4.7	-3.2	-6.1
AZGP1 (alpha-2-glycoprotein 1, zinc-binding)	0	-5.7	-9.8	-1.6
STAC3 (SH3 and cysteine rich domain 3)	0	15.6	4.4	26.9
LOC400745	1	14.2	24.7	3.7
CDH19 (cadherin 19)	-1	-8.8	-16.9	-0.6
LOC90342	0	6.1	7.4	4.8
C6orf62 (chromosome 6 open reading frame 62)	0	5.9	10.4	1.4
SPOCK2	1	13.8	5	22.6
PEBP4 (phosphatidylethanolamine binding protein 4)	0	-13	-11.6	-14.5
WNT3A (Wnt family member 3A)	0	0.8	-3.5	5.1
LOC441042	0	9.4	8.3	10.5
LINC02991 (long independently transcribed non-coding RNA 2991)	0	0.3	-5.5	6.2
LOC440888	0	0.1	5	-4.8
MGP (matrix Gla protein)	0	3.3	10.3	-3.6
HOXD4 (homeobox D4)	1	11.5	10.2	12.8
YRDC (yrdC N6-threonylcarbamoyltransferase domain containing)	0	5.9	7.9	3.9
UQCRQ (ubiquinol-cytochrome c reductase complex III subunit VII)	1	4.7	15.9	-6.5
LY9 (lymphocyte antigen 9)	1	8.2	14.1	2.3
LRPAP1 (LDL receptor related protein associated protein 1)	0	-11.9	-18.9	-4.9
ZNF142 (zinc finger protein 142)	0	17.9	26.4	9.3
LOC440228	0	15	13.2	16.8
KLRG1 (killer cell lectin like receptor G1)	-1	-4.1	6.2	-14.4
OTOP2 (otopetrin 2)	0	1.9	10.8	-7.1
SPATS2 (spermatogenesis associated serine rich 2)	0	1.5	2.9	0
LOC391001	1	12	19.2	4.8
ZNF528 (zinc finger protein 528)	0	0.1	0.1	0.1
PCBP2 (poly(rC) binding protein 2)	0	8	11.4	4.7
MIPEP (mitochondrial intermediate peptidase)	-1	-9.1	7.1	-25.4
H2AC20 (H2A clustered histone 20)	0	10.6	5	16.3
SGCA (sarcoglycan alpha)	-1	-6.6	-18.1	4.8
CGAS (cyclic GMP-AMP synthase)	0	6.6	6.5	6.7
TTC9B (tetratricopeptide repeat domain 9B)	0	9.3	12.8	5.8
RAB34 (RAB34, member RAS oncogene family)	0	23.3	-2.4	49.1
GALNT8 (polypeptide N-acetylgalactosaminyltransferase 8)	0	-1.2	4.6	-7
LINC01720 (long independently transcribed non-coding RNA 1720)	1	6.2	13.9	-1.4
ACVR1C (activin A receptor type 1C)	0	0.5	-4	5
ARL4D (ARF like GTPase 4D)	-1	-4.7	-10.4	1
SLC39A10	0	7.9	9.4	6.5
ATP11B (ATPase phospholipid transporting 11B (putative))	0	1.2	12	-9.6
MEFV (MEFV innate immunity regulator, pyrin)	0	-1.8	-2.5	-1.2
CELF4 (CUGBP Elav-like family member 4)	0	-1.9	2.9	-6.7
GPR35 (G protein-coupled receptor 35)	-1	-4.2	-17.7	9.3
PRR15L (proline rich 15 like)	1	13.8	7.2	20.3
ATF5 (activating transcription factor 5)	0	5.2	4	6.3
LOC440378	0	8.3	10.1	6.6
LOC401123 (retired record)	0	7.1	19.4	-5.1
ADGRA1 (adhesion G protein-coupled receptor A1)	-1	-7.5	-3.2	-11.8
UBTD2 (ubiquitin domain containing 2)	0	6.9	-2.1	15.9
RAB8B (RAB8B, member RAS oncogene family)	0	-7.9	8.6	-24.4
TRIM2 (tripartite motif containing 2)	0	11	15.5	6.6
LOC441349	0	11.3	24.3	-1.6

Reprinted from the listing, 4 entries:
target gene	two-siRNA summed score (-2 to +2)	mean protection from cisplatin (shift in death) (%)	protection from cisplatin (shift in death), siRNA C (%)	protection from cisplatin (shift in death), siRNA D (%)
ZNF142 (zinc finger protein 142)	0	17.9	26.4	9.3
LOC440228	0	15	13.2	16.8
KLRG1 (killer cell lectin like receptor G1)	-1	-4.1	6.2	-14.4
OTOP2 (otopetrin 2)	0	1.9	10.8	-7.1
